Reference: patent US20130085469A1, “TAUROLIDINE FORMULATIONS AND DELIVERY: THERAPEUTIC TREATMENTS AND ANTIMICROBIAL PROTECTION AGAINST BACTERIAL BIOFILM FORMATION” (priority 2004, published 2013)

Tested on: bacteria
Assay: PK/PD surrogate markers calculated from concentration profiles

Row | Structure (SMILES) | CP/MIC | AUC/MIC (AUC from clearance curve in FIG. 4)
1 | CN[C@H](CC(C)C)C(=O)N[C@H]1C(=O)N[C@@H](CC(N)=O)C(=O)N[C@H]2C(=O)N[C@H]3C(=O)N[C@H](C(=O)N[C@H](C(=O)O)c4cc(O)cc(O)c4-c4cc3ccc4O)[C@H](O)c3ccc(c(Cl)c3)Oc3cc2cc(c3O[C@@H]2O[C@H](CO)[C@@H](O)[C@H](O)[C@H]2O[C@H]2C[C@](C)(N)[C@H](O)[C@H](C)O2)Oc2ccc(cc2Cl)[C@H]1O [Vancomycin] | 12 | –
2 | O=S1(=O)CCN(CN2CCS(=O)(=O)NC2)CN1 [Taurolidine, 4,4′ Methlyen-bis(tetrahydro-2H-1,4-thiadiazin-1,1dioxide)] | 0.3 | 2.26
